PubChem BioAssay AID652243 – Drosophila RNAi Screening Center – 2013
Purpose: 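Fly genes required for human androgen receptor driven transcription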 (primary screen). Cell system: Drosophila S2R+ cells. Knock-down reagent: long dsRNA against Drosophila genes. Time to read-out: 72 h (48 h, then 24 h hormone). Challenge: synthetic androgen R1881 at 10 nM for 24 h. Measured: 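Per-well raw luminescence of the androgen-driven firefly reporter and of the Renilla control, two replicates each, without normalisation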. Scale: firefly reporter light: higher = more light from androgen-responsive reporter; Renilla control light: higher = more constitutive control signal (cell number, transfection). Call rule: 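Across duplicate plates, a knock-down whose log firefly/Renilla ratio shifted a set fold down or up from the GFP/LacZ control mean was a hit; the downward cut appears as both 1.5 and 3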. Meaning of the calls: active = hit: reporter lowered or raised; inactive = no hit.
The screen tested about 24,000 reagents; this is a random part of those with a known target gene and a result. Over the whole deposit, 246 (1%) got an active call. 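Plates not normalised; calls are printed but the firefly/Renilla ratio behind them is not deposited; fold cut for lowering reported inconsistently.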 The raw values are shown without normalisation. The numbers tell different reagents against one gene apart. The record does not give: the amount of reagent.

no.	gene	reagent no.	firefly reporter light, replicate 1	firefly reporter light, replicate 2	Renilla control light, replicate 1	Renilla control light, replicate 2	call
1	Eph	1	2.06e5	3.45e5	3.21e6	2.84e6	inactive
2	Eph	2					inactive
3	Eph	3					inactive
4	CG12426	1	2.32e5	1.69e5	2.44e6	2.71e6	inactive
5	CG31213	1	2.78e5	3.20e5	2.74e6	3.18e6	inactive
6	CG31213	2	2.86e5	2.74e5	3.60e6	4.02e6	inactive
7	AstA	1	1.56e5	2.41e5	2.84e6	3.30e6	inactive
8	CG15144	1	83104	86545	9.92e5	1.32e6	inactive
9	CG15144	2	4.65e5	3.13e5	5.02e5	3.15e5	inactive
10	Papss	1	23330	17462	3.38e5	3.12e5	inactive
11	Papss	2	6.56e5	4.73e5	6.85e5	4.84e5	active
12	Papss	3					inactive
13	CG32243	1	84285	1.64e5	2.04e5	3.71e5	inactive
14	CG7634	1	3.31e5	2.43e5	2.97e6	2.58e6	inactive
15	Ran	1	1.42e5	2.32e5	2.15e6	2.27e6	inactive
16	Ran	2	2.02e5	1.09e5	8.36e5	7.12e5	inactive
17	CG13833	1	1.46e5	1.51e5	2.70e6	2.57e6	inactive
18	Rab5	1	1.15e6	8.60e5	3.36e6	1.82e6	inactive
19	Rab5	2	7.72e5	6.96e5	5.19e5	5.44e5	inactive
20	Tango4	1	56018	62948	7.11e5	7.10e5	inactive
21	Tango4	2	5.59e5	6.22e5	9.93e5	9.94e5	inactive
22	CG6833	1	4.42e5	4.15e5	1.26e6	1.43e6	inactive
23	CG6833	2	7.81e5	9.91e5	9.30e5	9.87e5	inactive
24	CG1902	1	1.17e6	6.30e5	2.58e6	1.60e6	inactive

Targets listed so far whose gene name starts with P or p:
gene	reagent no.	firefly reporter light, replicate 1	firefly reporter light, replicate 2	Renilla control light, replicate 1	Renilla control light, replicate 2	call
Papss	1	23330	17462	3.38e5	3.12e5	inactive
Papss	2	6.56e5	4.73e5	6.85e5	4.84e5	active
Papss	3					inactive
